Results are given in words; binding and its absence hold for the method and conditions named. Binding seen in cells or lysates may run through a third protein. These calls come from enrichment with a bait or labelling near it, and not all partners need be listed.
Target: PfJ2 (PF3D7_1108700), 3xHA-tagged at the endogenous locus (P. falciparum (3D7))
Test: affinity purification with mass spectrometry

B1: PfRhopH3 (protein, UniProt Q8I395 25-897)
chain: KDVFAGFVTKKLKTLLDCNFALYYNFKGNGPDAGSFLDFVDEPEQFYWFVEHFLSVKFRVPKHLKDKNIHNFTPCLNRSWVSEFLKEYEEPFVNPVMKFLDKEQRLFFTYNFGDVEPQGKYTYFPVKEFHKYCILPPLIKTNIKDGESGEFLKYQLNKEEYKVFLSSVGSQMTAIKNLYSTVEDEQRKQLLKVIIENESTNDISVQCPTYNIKLHYTKECANSNNILKCIDEFLRKTCEKKTESKHPSADLCEHLQFLFESLKNPYLDNFKKFMTNSDFTLIKPQSVWNVPIFDIYKPKNYLDSVQNLDTECFKKLNSKNLIFLSFHDDIPNNPYYNVELQEIVKLSTYTYSIFDKLYNFFFVFKKSGAPISPVSVKELSHNITDFSFKEDNSEIQCQNVRKSLDLEVDVETMKGIAAEKLCKIIEKFILTKDDASKPEKSDIHRGFRILCILISTHVEAYNIVRQLLNMESMISLTRYTSLYIHKFFKSVTLLKGNFLYKNNKAIRYSRACSKASLHVPSVLYRRNIYIPETFLSLYLGLSNLVSSNPSSPFFEYAIIEFLVTYYNKGSEKFVLYFISIISVLYINEYYYEQLSCFYPKEFELIKSRMIHPNIVDRILKGIDNLMKSTRYDKMRTMYLDFESSDIFSREKVFTALYNFDSFIKTNEQLKKKNLEEISEIPVQLETSNDGIGYRKQDVLYETDKPQTMDEASYEETVDEDAHHVNEKQHSAHFLDAIAEKDILEEKTKDQDLEIELYKYMGPLKEQSKSTSAASTSDEISGSEGPSTESTSTGNQGEDKTTDNTYKEMEELEEAEGTSNLKKGLEFYKSSLKLDQLDKEKPKKKKSKRKKKRDSSSDRILLEESKTFTSENEL
B1 was tested, and the binding was “binds”.

— article doi:10.1101/2020.05.13.093591
